Assay results taken from patent US20150157659A1, “METHOD OF INDUCING AUTOPHAGY AND ACTIVATING TOLL-LIKE RECEPTOR” (National Tsing Hua University, priority 2013, published 2015).
For at least one compound, name, drawing or mass did not settle the structure.

Key:
CT26 cells = assay: GO-induced autophagy in cancer cells (LC3+ dots, TEM, Beclin1/p62); format: cell-based, murine; conditions: rapamycin treatment
[1] = test system: TLR-4 and TLR-9 pathways in CT26 cells; assay: Flow cytometry and immunofluorescence microscopy of TLR-4/9 pathways; format: cell-based, murine; conditions: rapamycin treatment

Which autophagy (CT26 cells) does the source give for `CO[C@H]1C[C@@H]2CC[C@@H](C)[C@@](O)(O2)C(=O)C(=O)N2CCCC[C@H]2C(=O)O[C@H]([C@H](C)C[C@@H]2CC[C@@H](O)[C@H](OC)C2)CC(=O)[C@H](C)/C=C(\C)[C@@H](O)[C@@H](OC)C(=O)[C@H](C)C[C@H](C)/C=C/C=C/C=C/1C` [rapamycin] here?
Its autophagy is “induced autophagy”.

What about the “activation of TLR-4, TLR-9, MyD88 and TRAF6 and phosphorylation of NF-κB and IRF7” value [1] of the same molecule?
Its value is “but not rapamycin”.

And the “activation of TLR-4 and TLR-9 pathways” value [1]?
The value was “neither GO5 nor rapamycin apparently activated both pathways”.
